Laboratory results: PubChem BioAssay AID485349 (National Center for Advancing Translational Sciences (NCATS), 2010)
The whole screen tested about 320,000 compounds, of which about 620 (0.19%) were called active. The shares of active, inactive and inconclusive entries below differ from those in the screen. Calls follow the shape of the dose curve; as a rule, active = well fitted activation curve with a large enough effect; inconclusive = small, poorly fitted or top-dose-only effect; inactive = no such curve, though single readings can be large or run the other way. Where the call is inconclusive, the potency comes from a doubtful curve fit.

Assay: qHTS Assay for Identifying a Potential Treatment of Ataxia-Telangiectasia; also: nearly all actives have a fitted effect of over 45% in size; as to activation: % of control where 0% means no effect
Conditions: […] A-T fibroblasts, KAP-1 phosphorylation AlphaLISA, neocarzinostatin DNA damage 30 min before lysis; series mostly up to 57.5 µM; activation: at the top concentration
Summary of the method: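 ATM-like activity read as KAP-1 phosphorylation via AlphaLISA donor/acceptor antibody pairs after lysis and 6 hr at 25C. Cells were ATM-null patient fibroblasts ([…], hTERT), dosed 60 min, then exposed to the DSB inducer NCS for 30 min.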
Potency is read from the fitted curve at half-maximal effect.

Compound | activation | Potency
O=C(Nc1ccccc1Cl)c1cccs1 | inactive: 25.3% | 
NS(=O)(=O)c1ccc(CCNC(=O)NC2CCCCC2)cc1 |  | inconclusive: 39.8 µM [activator, single point]
Cc1onc(-c2ccccc2Cl)c1C(=O)Nc1ccc(-c2cn3cccnc3n2)cc1 |  | inconclusive: 22.4 µM [activator, partial curve, poor fit]
O=C(Oc1c(CN2CCOCC2)cc(Cl)c2cccnc12)c1ccccc1F | inactive: 0.16% | 
CC1CCc2c(sc3nc(C(C)(C)C)nc(N4CCN(C(=O)CCl)CC4)c23)C1 (stereo not drawn) |  | inconclusive: 39.8 µM [activator, single point]
Nc1ccc2ncccc2c1 |  | inconclusive: 3.16 µM [activator, partial curve]
COc1cc(C2c3cc4c(cc3C(OC3OC5COC(c6cccs6)OC5C(O)C3O)C3COC(=O)C23)OCO4)cc(OC)c1O (stereo not drawn) |  | active: 35.5 µM
Cc1ccc(N2CC(C(=O)N/N=C/c3c(F)cccc3Cl)CC2=O)cc1 (stereo not drawn) | inactive: -4.86% | 
O=C(Nc1cc(S(=O)(=O)N2CCOCC2)ccc1Cl)c1ccncc1 |  | inconclusive: 17.8 µM [activator, partial curve, poor fit]
O=C(CO/N=C/c1ccccc1)Nc1c(F)c(F)c(F)c(F)c1F |  | inconclusive: 39.8 µM [activator, single point]
CCOC(=O)c1c(-c2ccccc2)csc1NC(=O)/C(C#N)=C/c1ccc(OC)c(OC)c1 | inactive: -1.92% | 
COc1ccc(-c2nn(C)c(=O)[nH]2)cc1 |  | inconclusive: 6.31 µM [activator, single point]
O=C1CCCCN1CCCC(=O)N1CCCC(Nc2ccc(F)c(F)c2)C1 (stereo not drawn) |  | inconclusive: 39.8 µM [activator, partial curve]
CCCCNC(=O)CSc1nnc(Cc2ccc(Cl)c(Cl)c2)c(=O)[nH]1 | inactive: -3.39% | 
Cc1ccccc1NC(NC(=O)OCCn1c([N+](=O)[O-])cnc1C)C(Cl)(Cl)Cl (stereo not drawn) |  | inconclusive: 7.08 µM [activator, single point]
O=C(COC(=O)CC(c1ccccc1)c1ccccc1)NCc1ccccc1 | inactive: 2.7% | 
O=c1[nH][nH]c(-c2ccccc2O)c1C(C[N+](=O)[O-])c1ccc(Br)cc1 (stereo not drawn) |  | inconclusive: 39.8 µM [activator, single point]
COc1ccc2oc(C(=O)OCC(=O)c3ccc4c(c3)OCCO4)c(C)c2c1 |  | inconclusive: 20 µM [activator, partial curve]
CS(=O)(=O)c1nc(-c2ccc(Br)cc2)cc(-c2ccccc2)c1C#N | inactive: 7.25% | 
O=C1c2cccc3cccc(c23)N1Cc1ccc(F)cc1 |  | inconclusive: 0.708 µM [activator, full curve, poor fit]
CN1CCN(c2ccc(NC(=S)NC(=O)c3cccc4c(Cl)cccc34)cc2)CC1 | inactive: 4.07% | 
CCCCCCCCCCn1ccc(=N)cc1 |  | inconclusive: 35.5 µM [activator, partial curve, poor fit]
CC(C)N(CCC(=O)c1ccc2ccccc2c1)Cc1ccccc1 |  | inconclusive: 6.31 µM [activator, single point]

Four compounds picked at random from the list so far:
Compound | activation | Potency
O=C(Nc1ccccc1Cl)c1cccs1 | inactive: 25.3% | 
Cc1onc(-c2ccccc2Cl)c1C(=O)Nc1ccc(-c2cn3cccnc3n2)cc1 |  | inconclusive: 22.4 µM [activator, partial curve, poor fit]
CCCCCCCCCCn1ccc(=N)cc1 |  | inconclusive: 35.5 µM [activator, partial curve, poor fit]
CS(=O)(=O)c1nc(-c2ccc(Br)cc2)cc(-c2ccccc2)c1C#N | inactive: 7.25% | 

(more compounds)

Compound | activation | Potency
COc1ccc(-c2csc(-c3ccccc3)n2)c(OC)c1 |  | inconclusive: 31.6 µM [activator, single point]
CCn1nc(NC(=O)C2CCCO2)c2cc3cccc(C)c3nc21 (stereo not drawn) |  | inconclusive: 28.2 µM [activator, single point]
COc1ccc(C2/C=C\CN(S(=O)(=O)c3cccs3)CC(=O)N2Cc2ccc(F)cc2)cc1 (stereo not drawn) |  | inconclusive: 22.4 µM [activator, partial curve]
COC(=O)Cc1ccc(NC(=S)NCCSc2ccc(Cl)cc2)cc1 |  | inconclusive: 5.01 µM [activator, full curve]
Cc1nn(C)c(Cl)c1CN1CCN(C2CCCC2)C(CCO)C1 (stereo not drawn) |  | inconclusive: 10 µM [activator, partial curve]
Cc1nc2nc[nH]n2c(=O)c1NC(=O)CCc1ccccc1 |  | inconclusive: 3.55 µM [activator, partial curve]
COC(=O)c1ccc(Oc2c(C)oc3cc(OCc4cnn(-c5ccccc5)c4)ccc3c2=O)cc1 |  | inconclusive: 44.7 µM [activator, partial curve, poor fit]
COc1cccc(OC)c1C(=O)NC(=O)Nc1c(C)cccc1C |  | active: 3.55 µM
Cc1ccc(NC(=O)c2ccc(C(C)(C)C)cc2)cc1[N+](=O)[O-] |  | inconclusive: 39.8 µM [activator, single point]
Cc1cccc(CSc2nnc(CCCCCNC(=O)OC(C)(C)C)o2)c1 |  | inconclusive: 39.8 µM [activator, single point]
C=CCn1c2ccccc2c(=O)c2cc(C#CC[C@@H](C)O)ccc21 |  | active: 20 µM
O=C(OCC(=O)N(Cc1ccccc1)Cc1ccccc1)c1ccccc1NCCO |  | active: 22.4 µM
COc1ccc(C#Cc2c(C=O)n(C)c3ccccc23)cc1 |  | inconclusive: 35.5 µM [activator, partial curve]
COc1ccc(/C=N/Nc2nc(=O)[nH]nc2C)cc1OC |  | active: 7.08 µM
COC(=O)c1ccccc1NC(=O)CCC(=O)N1CC(C)Oc2ccc(C)cc21 (stereo not drawn) | inactive: 30.1% | 
CCN1CCc2c(sc(NC(=O)c3ccc(S(=O)(=O)N4CC(C)OC(C)C4)cc3)c2C(N)=O)C1 (stereo not drawn) |  | inconclusive: 39.8 µM [activator, single point]
Cc1ccc(S(=O)(=O)Oc2ccc(/C=C(/NC(=O)c3ccccc3)C(=O)NCC(=O)O)cc2)cc1 | inactive: -1.67% | 
N#Cc1ccc(-c2csc(NC(=O)c3ccc(N4C(=O)CCC4=O)cc3)n2)cc1 |  | inconclusive: 3.16 µM [activator, partial curve]
CC(C)CN(CC(C)C)C(=O)c1cc2c(=O)n3ccccc3nc2s1 |  | active: 12.6 µM
Cc1cccc(CN2CCC(CNC(=O)CCNC(=O)Cn3ccc4ccccc4c3=O)CC2)c1 | inactive: -14.6% | 
CCN(CC)S(=O)(=O)c1cccc(NN=c2c(=O)c3ccccc3c2=O)c1 |  | inconclusive: 1 µM [activator, full curve, poor fit]
Cc1ccc(-c2ccc([C@H]3[C@@H]4C=CCC[C@@]4(C)C(=O)N3Cc3ccccc3)c(F)c2)cc1 |  | inconclusive: 39.8 µM [activator, single point]
CCOC(=O)C(NC(=O)c1ccccc1)(Nc1cc(C)on1)C(F)(F)F (stereo not drawn) |  | inconclusive: 39.8 µM [activator, partial curve]

A few values from the results shown.
Under Potency, `CCOC(=O)C(NC(=O)c1ccccc1)(Nc1cc(C)on1)C(F)(F)F` (stereo not drawn) shows inconclusive: 39.8 µM [activator, partial curve]
Under Potency, `C=CCn1c2ccccc2c(=O)c2cc(C#CC[C@@H](C)O)ccc21` shows active: 20 µM

Later entries:

Compound | activation | Potency
O=C(O)c1ccc(-c2nnn(Cc3ccccc3F)n2)cc1 |  | inconclusive: 39.8 µM [activator, single point]
CC1CCN(S(=O)(=O)c2ccc3c(c2)c(=O)c(C(=O)N2CCCCC2)cn3C)CC1 |  | inconclusive: 4.47 µM [activator, single point]
Cc1nc([N+](=O)[O-])c(N2CCOCC2)n1Cc1ccccc1 |  | inconclusive: 3.16 µM [activator, partial curve]
CC1(C)O[C@H]2OC([C@H](O)CON3C(=O)c4ccccc4C3=O)[C@H](O)[C@H]2O1 (stereo partly drawn) |  | inconclusive: 2.51 µM [activator, full curve, poor fit]
C=CCC(CC(O)COCCC)C(=O)NNC(=S)Nc1ccccc1 (stereo not drawn) |  | inconclusive: 5.01 µM [activator, single point]
COc1ccccc1NC(=O)Nc1sccc1-c1nc2ccccc2s1 |  | inconclusive: 25.1 µM [activator, single point]
CCCCN(CCO)c1ncnc2sc(-c3ccccc3)cc12 |  | inconclusive: 0.708 µM [activator, full curve, poor fit]
CCC(C)Nc1nc(N)c([N+](=O)[O-])c(NCCO)n1 (stereo not drawn) |  | inconclusive: 11.2 µM [activator, full curve, poor fit]
O=[N+]([O-])c1ccc(F)cc1F |  | inconclusive: 10 µM [activator, partial curve]
CN(C)C(=O)c1nc2ccc(Cl)cn2c1CNCc1cccc(OC(F)(F)F)c1 |  | inconclusive: 0.631 µM [activator, full curve, poor fit]
Cc1cccc(C(=O)OC2CCCN(C)C2)c1C (stereo not drawn) |  | inconclusive: 31.6 µM [activator, partial curve]
COc1ccc2sc(-c3ccc(N(C)C)cc3)c(C#CC(C)(C)O)c2c1 |  | active: 31.6 µM
CCn1c(=N)n(CC(=O)c2ccc(Cl)c(Cl)c2)c2ccccc21 |  | active: 28.2 µM
COc1cc(C#Cc2c(-c3cncn3C)n(C)c3ccc(-c4ccc(CN5CCOCC5)cc4)cc23)cc(OC)c1 |  | inconclusive: 17.8 µM [activator, partial curve]
CN(C)S(=O)(=O)c1ccc(NC(=O)c2ccc([N+](=O)[O-])cc2)cc1 |  | inconclusive: 3.55 µM [activator, partial curve]
Oc1ccc(Br)cc1-c1nc2cnccn2c1NC1CCCC1 | inactive: 5.74% | 
Cc1cc(C)c2c(Cn3ccnc3)cc(=O)oc2c1 |  | inconclusive: 0.708 µM [activator, full curve]
Cc1ccc(S(=O)(=O)/N=C2/C=C(Sc3ncn[nH]3)C(=O)c3ccccc32)c(C)c1 |  | inconclusive: 4.47 µM [activator, single point]
CC(C)c1ccc2oc(=O)cc(CN3CCCCC3)c2c1 |  | active: 35.5 µM
NNc1nc2c(-c3cccc(C(F)(F)F)c3)nnn2c2ccccc12 |  | active: 25.1 µM
CCOC(=O)C(=O)Nc1ccc(F)cc1 | inactive: 3.37% | 
CS(=O)(=O)c1ccc(-c2sc3ccccc3c2C#CCCO)cc1 |  | inconclusive: 39.8 µM [activator, single point]
